We go through 19 molecules from US20250215100A1.

B1: PR003379 (antibody, human IgG2, kappa)
heavy: QVQLVQSGAEVKKPGASVKVSCKASGYTFAGYYMYWVRQAPGQGLEWMGWINPDSGAPTYAQKFQGRVTMTRDTSISTAYMELSRLRSDDTAVYYCAREKIYYGSGNYYPSFDYWGQGTLVTVSSASTKGPSVFPLAPCSRSTSESTAALGCLVKDYFPEPVTVSWNSGALTSGVHTFPAVLQSSGLYSLSSVVTVPSSNFGTQTYTCNVDHKPSNTKVDKTVERKCCVECPPCPAPPVAGPSVFLFPPKPKDTLMISRTPEVTCVVVDVSHEDPEVQFNWYVDGVEVHNAKTKPREEQFNSTFRVVSVLTVVHQDWLNGKEYKCKVSNKGLPAPIEKTISKTKGQPREPQVYTLPPSREEMTKNQVSLTCLVKGFYPSDIAVEWESNGQPENNYKTTPPMLDSDGSFFLYSKLTVDKSRWQQGNVFSCSVMHEALHNHYTQKSLSLSPGK
light: DIQLTQSPSFLSASVGDRVTITCRASQGISSYLAWYQQKPGKAPKLLIYAASTLQSGVPSRFSGSGSGTEFTLTISSLQPEDFATYYCQQLNSYPWTFGQGTKVEIKRTVAAPSVFIFPPSDEQLKSGTASVVCLLNNFYPREAKVQWKVDNALQSGNSQESVTEQDSKDSTYSLSSTLTLSKADYEKHKVYACEVTHQGLSSPVTKSFNRGEC
B2: PR006492 (antibody, human IgG1, kappa, V domains shown)
VH: QVQLVQSGAEVKKPGASVKVSCKASGYTFAGYYMYWVRQAPGQGLEWMGWINPDSGAPTYAQKFQGRVTMTRDTSISTAYMELSRLRSDDTAVYYCAREKIYYGSGNYYPSFDYWGQGTLVTVSS
VL: DIQLTQSPSFLSASVGDRVTITCRASQGISSYLAWYQQKPGKAPKLLIYAASTLQSGVPSRFSGSGSGTEFTLTISSLQPEDFATYYCQQLESYPWTFGQGTKVEIKR
B3: PR006509 (antibody, human IgG1, kappa, V domains shown)
VH: QVQLVQSGAEVKKPGASVKVSCKASGYTFAGYYMYWVRQAPGQGLEWMGWINPDSGAPTYAQKFQGRVTMTRDTSISTAYMELSRLRSDDTAVYYCAREKIYYGSGNYYPSFDYWGQGTLVTVSS
VL: DIQLTQSPSFLSASVGDRVTITCRASQGISSYLAWYQQKPGKAPKLLIYAASTLQSGVPSRFSGSGSGTEFTLTISSLQPEDFATYYCQQLNLYPWTFGQGTKVEIKR
B4: PR006496 (antibody, human IgG1, kappa, V domains shown)
VH: QVQLVQSGAEVKKPGASVKVSCKASGYTFAGYYMYWVRQAPGQGLEWMGWINPDSGAPTYAQKFQGRVTMTRDTSISTAYMELSRLRSDDTAVYYCAREKIYYGSGNYYPSFDYWGQGTLVTVSS
VL: DIQLTQSPSFLSASVGDRVTITCRASQGISSYLAWYQQKPGKAPKLLIYAASTLQSGVPSRFSGSGSGTEFTLTISSLQPEDFATYYCQQLFSYPWTFGQGTKVEIKR
B5: PR006507 (antibody, human IgG1, kappa, V domains shown)
VH: QVQLVQSGAEVKKPGASVKVSCKASGYTFAGYYMYWVRQAPGQGLEWMGWINPDSGAPTYAQKFQGRVTMTRDTSISTAYMELSRLRSDDTAVYYCAREKIYYGSGNYYPSFDYWGQGTLVTVSS
VL: DIQLTQSPSFLSASVGDRVTITCRASQGISSYLAWYQQKPGKAPKLLIYAASTLQSGVPSRFSGSGSGTEFTLTISSLQPEDFATYYCQQLNEYPWTFGQGTKVEIKR
B6: PR006499 (antibody, human IgG1, kappa, V domains shown)
VH: QVQLVQSGAEVKKPGASVKVSCKASGYTFAGYYMYWVRQAPGQGLEWMGWINPDSGAPTYAQKFQGRVTMTRDTSISTAYMELSRLRSDDTAVYYCAREKIYYGSGNYYPSFDYWGQGTLVTVSS
VL: DIQLTQSPSFLSASVGDRVTITCRASQGISSYLAWYQQKPGKAPKLLIYAASTLQSGVPSRFSGSGSGTEFTLTISSLQPEDFATYYCQQLWSYPWTFGQGTKVEIKR
B7: PR006495 (antibody, human IgG1, kappa, V domains shown)
VH: QVQLVQSGAEVKKPGASVKVSCKASGYTFAGYYMYWVRQAPGQGLEWMGWINPDSGAPTYAQKFQGRVTMTRDTSISTAYMELSRLRSDDTAVYYCAREKIYYGSGNYYPSFDYWGQGTLVTVSS
VL: DIQLTQSPSFLSASVGDRVTITCRASQGISSYLAWYQQKPGKAPKLLIYAASTLQSGVPSRFSGSGSGTEFTLTISSLQPEDFATYYCQQLASYPWTFGQGTKVEIKR
B8: PR006498 (antibody, human IgG1, kappa, V domains shown)
VH: QVQLVQSGAEVKKPGASVKVSCKASGYTFAGYYMYWVRQAPGQGLEWMGWINPDSGAPTYAQKFQGRVTMTRDTSISTAYMELSRLRSDDTAVYYCAREKIYYGSGNYYPSFDYWGQGTLVTVSS
VL: DIQLTQSPSFLSASVGDRVTITCRASQGISSYLAWYQQKPGKAPKLLIYAASTLQSGVPSRFSGSGSGTEFTLTISSLQPEDFATYYCQQLISYPWTFGQGTKVEIKR
B9: PR006510 (antibody, human IgG1, kappa, V domains shown)
VH: QVQLVQSGAEVKKPGASVKVSCKASGYTFAGYYMYWVRQAPGQGLEWMGWINPDSGAPTYAQKFQGRVTMTRDTSISTAYMELSRLRSDDTAVYYCAREKIYYGSGNYYPSFDYWGQGTLVTVSS
VL: DIQLTQSPSFLSASVGDRVTITCRASQGISSYLAWYQQKPGKAPKLLIYAASTLQSGVPSRFSGSGSGTEFTLTISSLQPEDFATYYCQQLNRYPWTFGQGTKVEIKR
B10: PR006493 (antibody, human IgG1, kappa, V domains shown)
VH: QVQLVQSGAEVKKPGASVKVSCKASGYTFAGYYMYWVRQAPGQGLEWMGWINPDSGAPTYAQKFQGRVTMTRDTSISTAYMELSRLRSDDTAVYYCAREKIYYGSGNYYPSFDYWGQGTLVTVSS
VL: DIQLTQSPSFLSASVGDRVTITCRASQGISSYLAWYQQKPGKAPKLLIYAASTLQSGVPSRFSGSGSGTEFTLTISSLQPEDFATYYCQQLLSYPWTFGQGTKVEIKR
B11: PR006501 (antibody, human IgG1, kappa, V domains shown)
VH: QVQLVQSGAEVKKPGASVKVSCKASGYTFAGYYMYWVRQAPGQGLEWMGWINPDSGAPTYAQKFQGRVTMTRDTSISTAYMELSRLRSDDTAVYYCAREKIYYGSGNYYPSFDYWGQGTLVTVSS
VL: DIQLTQSPSFLSASVGDRVTITCRASQGISSYLAWYQQKPGKAPKLLIYAASTLQSGVPSRFSGSGSGTEFTLTISSLQPEDFATYYCQQLQSYPWTFGQGTKVEIKR
B12: PR006504 (antibody, human IgG1, kappa, V domains shown)
VH: QVQLVQSGAEVKKPGASVKVSCKASGYTFAGYYMYWVRQAPGQGLEWMGWINPDSGAPTYAQKFQGRVTMTRDTSISTAYMELSRLRSDDTAVYYCAREKIYYGSGNYYPSFDYWGQGTLVTVSS
VL: DIQLTQSPSFLSASVGDRVTITCRASQGISSYLAWYQQKPGKAPKLLIYAASTLQSGVPSRFSGSGSGTEFTLTISSLQPEDFATYYCQQLVSYPWTFGQGTKVEIKR
B13: PR006502 (antibody, human IgG1, kappa, V domains shown)
VH: QVQLVQSGAEVKKPGASVKVSCKASGYTFAGYYMYWVRQAPGQGLEWMGWINPDSGAPTYAQKFQGRVTMTRDTSISTAYMELSRLRSDDTAVYYCAREKIYYGSGNYYPSFDYWGQGTLVTVSS
VL: DIQLTQSPSFLSASVGDRVTITCRASQGISSYLAWYQQKPGKAPKLLIYAASTLQSGVPSRFSGSGSGTEFTLTISSLQPEDFATYYCQQLDSYPWTFGQGTKVEIKR
B14: PR006505 (antibody, human IgG1, kappa, V domains shown)
VH: QVQLVQSGAEVKKPGASVKVSCKASGYTFAGYYMYWVRQAPGQGLEWMGWINPDSGAPTYAQKFQGRVTMTRDTSISTAYMELSRLRSDDTAVYYCAREKIYYGSGNYYPSFDYWGQGTLVTVSS
VL: DIQLTQSPSFLSASVGDRVTITCRASQGISSYLAWYQQKPGKAPKLLIYAASTLQSGVPSRFSGSGSGTEFTLTISSLQPEDFATYYCQQLNIYPWTFGQGTKVEIKR
B15: PR006506 (antibody, human IgG1, kappa, V domains shown)
VH: QVQLVQSGAEVKKPGASVKVSCKASGYTFAGYYMYWVRQAPGQGLEWMGWINPDSGAPTYAQKFQGRVTMTRDTSISTAYMELSRLRSDDTAVYYCAREKIYYGSGNYYPSFDYWGQGTLVTVSS
VL: DIQLTQSPSFLSASVGDRVTITCRASQGISSYLAWYQQKPGKAPKLLIYAASTLQSGVPSRFSGSGSGTEFTLTISSLQPEDFATYYCQQLNFYPWTFGQGTKVEIKR
B16: PR006494 (antibody, human IgG1, kappa, V domains shown)
VH: QVQLVQSGAEVKKPGASVKVSCKASGYTFAGYYMYWVRQAPGQGLEWMGWINPDSGAPTYAQKFQGRVTMTRDTSISTAYMELSRLRSDDTAVYYCAREKIYYGSGNYYPSFDYWGQGTLVTVSS
VL: DIQLTQSPSFLSASVGDRVTITCRASQGISSYLAWYQQKPGKAPKLLIYAASTLQSGVPSRFSGSGSGTEFTLTISSLQPEDFATYYCQQLTSYPWTFGQGTKVEIKR
B17: PR006497 (antibody, human IgG1, kappa, V domains shown)
VH: QVQLVQSGAEVKKPGASVKVSCKASGYTFAGYYMYWVRQAPGQGLEWMGWINPDSGAPTYAQKFQGRVTMTRDTSISTAYMELSRLRSDDTAVYYCAREKIYYGSGNYYPSFDYWGQGTLVTVSS
VL: DIQLTQSPSFLSASVGDRVTITCRASQGISSYLAWYQQKPGKAPKLLIYAASTLQSGVPSRFSGSGSGTEFTLTISSLQPEDFATYYCQQLYSYPWTFGQGTKVEIKR
B18: PR006503 (antibody, human IgG1, kappa, V domains shown)
VH: QVQLVQSGAEVKKPGASVKVSCKASGYTFAGYYMYWVRQAPGQGLEWMGWINPDSGAPTYAQKFQGRVTMTRDTSISTAYMELSRLRSDDTAVYYCAREKIYYGSGNYYPSFDYWGQGTLVTVSS
VL: DIQLTQSPSFLSASVGDRVTITCRASQGISSYLAWYQQKPGKAPKLLIYAASTLQSGVPSRFSGSGSGTEFTLTISSLQPEDFATYYCQQLGSYPWTFGQGTKVEIKR
B19: PR006500 (antibody, human IgG1, kappa, V domains shown)
VH: QVQLVQSGAEVKKPGASVKVSCKASGYTFAGYYMYWVRQAPGQGLEWMGWINPDSGAPTYAQKFQGRVTMTRDTSISTAYMELSRLRSDDTAVYYCAREKIYYGSGNYYPSFDYWGQGTLVTVSS
VL: DIQLTQSPSFLSASVGDRVTITCRASQGISSYLAWYQQKPGKAPKLLIYAASTLQSGVPSRFSGSGSGTEFTLTISSLQPEDFATYYCQQLMSYPWTFGQGTKVEIKR

Results are given in words; binding and its absence hold for the method and conditions named. Some entries that bind do so weakly or less than the wild type.

The target of this test is cynomolgus monkey CD40 on cells (cynomolgus monkey) (UniProt G7PG38). Description: FACS, CHO-K1/cyCD40 cells.
Take B1: the binding entry is on record as “binds”.

As for B2, the binding entry is on record as “binds”.

Consider B3, for which the binding entry was “binds”.

For B4, the binding result was “binds”.

In the case of B5, the binding entry is given as “binds”.

For B6, the binding result was “binds”.

With B7, the binding entry was “binds”.

With B8, the binding entry is listed as “binds”.

With B9, the binding entry is reported as “binds”.

As for B10, the binding entry is “binds”.

With B11, the binding entry is on record as “binds”.

As to B12, the binding entry is given as “binds”.

For the molecule B13, the binding result is recorded as “binds”.

For B14, the binding entry is on record as “binds”.

B15: the binding entry is “binds”.

Consider B16, for which the binding entry was “binds”.

For B17, the binding entry was “binds”.

In the case of B18, the binding entry is listed as “binds”.

With B19, the binding entry was “binds”.
